Data source: PubChem BioAssay AID504764 (Drosophila RNAi Screening Center, 2011)

Screen: 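Genes whose knock-down alters Notch-dependent transcription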 (primary screen)
System: Drosophila Kc167 cells
Reagents: long dsRNA against Drosophila genes
Duration: about 5 days (4 days dsRNA, then 24 h after transfection)
Conditions: transfection of constitutively active membrane-tethered Notch lacking the extracellular domain, read 24 h later
Read-out: 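Firefly luciferase from an E(spl)m3 reporter with active Notch, plus control-promoter and uninduced reporter wells for normalisation; unnormalised counts, duplicate wells a and b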
Direction: induced reporter light, run 1, well a and induced reporter light, run 1, well b: higher = more light from the Notch target reporter with active Notch; control promoter light, run 1, well a and control promoter light, run 1, well b: higher = more light from the viral control promoter (cell number, transfection, viability); uninduced reporter light, run 1, well a: higher = more light from the Notch target reporter without active Notch
Call rule: 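Hit if the duplicate-averaged log2 ratio of induced to control-promoter light gives a plate-wise z beyond ±2, or induced to uninduced beyond ±1.8; weak-control or discordant-duplicate wells dropped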
Meaning of the calls: active = modifier hit (raised or lowered Notch signal); inactive = not a hit
In all, the deposit lists about 22,000 reagents; below is a random part of those that have a named target and a result. Of all reagents, 403 (1.9%) got an active call. 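Unnormalised raw counts per well; ratio z-scores behind the hit calls and whether each hit raises or lowers signal are not deposited.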 A number with no mark means an inactive call. The numbers tell different reagents against one gene apart. Names joined by + are all predicted targets of the reagent. The record does not give: the amount of reagent.

{"gene":"CG32706 + CG6999","reagent no.":1,"induced reporter light, run 1, well a":91095,"induced reporter light, run 1, well b":78905,"control promoter light, run 1, well a":1.04e5,"control promoter light, run 1, well b":1.03e5,"uninduced reporter light, run 1, well a":7025}
{"gene":"cindr (CIN85 and CD2AP related)","reagent no.":1,"induced reporter light, run 1, well a":1.40e5,"induced reporter light, run 1, well b":1.69e5,"control promoter light, run 1, well a":1.95e5,"control promoter light, run 1, well b":1.91e5,"uninduced reporter light, run 1, well a":11525}
{"gene":"cindr (CIN85 and CD2AP related)","reagent no.":2,"induced reporter light, run 1, well a":37230,"induced reporter light, run 1, well b":32195,"control promoter light, run 1, well a":53885,"control promoter light, run 1, well b":51970,"uninduced reporter light, run 1, well a":5560}
{"gene":"CG42538","reagent no.":1,"induced reporter light, run 1, well a":1.50e5,"induced reporter light, run 1, well b":1.82e5,"control promoter light, run 1, well a":2.43e5,"control promoter light, run 1, well b":2.88e5,"uninduced reporter light, run 1, well a":15450}
{"gene":"Jon66Cii (Jonah 66Cii)","reagent no.":1,"induced reporter light, run 1, well a":1.21e5,"induced reporter light, run 1, well b":78660,"control promoter light, run 1, well a":81590,"control promoter light, run 1, well b":88695,"uninduced reporter light, run 1, well a":5182}
{"gene":"NimC1 (Nimrod C1)","reagent no.":1,"induced reporter light, run 1, well a":1.10e5,"induced reporter light, run 1, well b":1.20e5,"control promoter light, run 1, well a":1.14e5,"control promoter light, run 1, well b":1.28e5,"uninduced reporter light, run 1, well a":9765}
{"gene":"ken (ken and barbie)","reagent no.":1,"induced reporter light, run 1, well a":69185,"induced reporter light, run 1, well b":58720,"control promoter light, run 1, well a":16725,"control promoter light, run 1, well b":16820,"uninduced reporter light, run 1, well a":6792}
{"gene":"CG33557","reagent no.":1,"induced reporter light, run 1, well a":1.33e5,"induced reporter light, run 1, well b":1.38e5,"control promoter light, run 1, well a":3.05e5,"control promoter light, run 1, well b":2.26e5,"uninduced reporter light, run 1, well a":8310}
{"gene":"nwk (nervous wreck)","reagent no.":1,"induced reporter light, run 1, well a":1.96e5,"induced reporter light, run 1, well b":1.52e5,"control promoter light, run 1, well a":2.08e5,"control promoter light, run 1, well b":1.86e5,"uninduced reporter light, run 1, well a":10685}
{"gene":"CG8010","reagent no.":1,"induced reporter light, run 1, well a":73965,"induced reporter light, run 1, well b":71790,"control promoter light, run 1, well a":53005,"control promoter light, run 1, well b":33185,"uninduced reporter light, run 1, well a":5530}
{"gene":"Secp43 (tRNA Selenocysteine associated protein)","reagent no.":1,"induced reporter light, run 1, well a":1.39e5,"induced reporter light, run 1, well b":1.23e5,"control promoter light, run 1, well a":1.56e5,"control promoter light, run 1, well b":1.37e5,"uninduced reporter light, run 1, well a":7850}
{"gene":"CG4820","reagent no.":1,"induced reporter light, run 1, well a":82795,"induced reporter light, run 1, well b":98805,"control promoter light, run 1, well a":94025,"control promoter light, run 1, well b":62750,"uninduced reporter light, run 1, well a":4320}
{"gene":"btl (breathless)","reagent no.":1,"induced reporter light, run 1, well a":2.72e5,"induced reporter light, run 1, well b":2.04e5,"control promoter light, run 1, well a":3.22e5,"control promoter light, run 1, well b":2.54e5,"uninduced reporter light, run 1, well a":9125}
{"gene":"CG12824","reagent no.":1,"induced reporter light, run 1, well a":2.14e5,"induced reporter light, run 1, well b":2.07e5,"control promoter light, run 1, well a":2.41e5,"control promoter light, run 1, well b":2.65e5,"uninduced reporter light, run 1, well a":20335}
{"gene":"slmb (supernumerary limbs)","reagent no.":1,"induced reporter light, run 1, well a":16105,"induced reporter light, run 1, well b":19985,"control promoter light, run 1, well a":15830,"control promoter light, run 1, well b":18110,"uninduced reporter light, run 1, well a":2630}
{"gene":"PsGEF (Protostome-specific GEF)","reagent no.":1,"induced reporter light, run 1, well a":1.12e5,"induced reporter light, run 1, well b":93555,"control promoter light, run 1, well a":1.35e5,"control promoter light, run 1, well b":1.66e5,"uninduced reporter light, run 1, well a":8670}
{"gene":"CG1314","reagent no.":1,"induced reporter light, run 1, well a":1.21e5,"induced reporter light, run 1, well b":1.32e5,"control promoter light, run 1, well a":1.22e5,"control promoter light, run 1, well b":58320,"uninduced reporter light, run 1, well a":9035}
{"gene":"Prosbeta2 (Proteasome beta2 subunit)","reagent no.":1,"induced reporter light, run 1, well a":39405,"induced reporter light, run 1, well b":35770,"control promoter light, run 1, well a":30385,"control promoter light, run 1, well b":40925,"uninduced reporter light, run 1, well a":3530}
{"gene":"CG4282","reagent no.":1,"induced reporter light, run 1, well a":87710,"induced reporter light, run 1, well b":1.12e5,"control promoter light, run 1, well a":1.92e5,"control promoter light, run 1, well b":2.00e5,"uninduced reporter light, run 1, well a":8695}
{"gene":"mRpL38 (mitochondrial ribosomal protein L38)","reagent no.":1,"induced reporter light, run 1, well a":81930,"induced reporter light, run 1, well b":73315,"control promoter light, run 1, well a":91160,"control promoter light, run 1, well b":95405,"uninduced reporter light, run 1, well a":12005}
{"gene":"gcm (glial cells missing)","reagent no.":1,"induced reporter light, run 1, well a":1.22e5,"induced reporter light, run 1, well b":1.60e5,"control promoter light, run 1, well a":82240,"control promoter light, run 1, well b":1.03e5,"uninduced reporter light, run 1, well a":19490}
{"gene":"CG31431","reagent no.":1,"induced reporter light, run 1, well a":1.91e5,"induced reporter light, run 1, well b":1.75e5,"control promoter light, run 1, well a":2.18e5,"control promoter light, run 1, well b":2.08e5,"uninduced reporter light, run 1, well a":12855}
{"gene":"fdl (fused lobes)","reagent no.":1,"induced reporter light, run 1, well a":73390,"induced reporter light, run 1, well b":86865,"control promoter light, run 1, well a":1.41e5,"control promoter light, run 1, well b":1.04e5,"uninduced reporter light, run 1, well a":7840}
{"gene":"CG2574","reagent no.":1,"induced reporter light, run 1, well a":87665,"induced reporter light, run 1, well b":85565,"control promoter light, run 1, well a":86965,"control promoter light, run 1, well b":1.24e5,"uninduced reporter light, run 1, well a":5870}

3 entries from above, set out differently.
{"gene": "cindr (CIN85 and CD2AP related)", "reagent no.": 1, "induced reporter light, run 1, well a": 1.40e5, "induced reporter light, run 1, well b": 1.69e5, "control promoter light, run 1, well a": 1.95e5, "control promoter light, run 1, well b": 1.91e5, "uninduced reporter light, run 1, well a": 11525}
{"gene": "cindr (CIN85 and CD2AP related)", "reagent no.": 2, "induced reporter light, run 1, well a": 37230, "induced reporter light, run 1, well b": 32195, "control promoter light, run 1, well a": 53885, "control promoter light, run 1, well b": 51970, "uninduced reporter light, run 1, well a": 5560}
{"gene": "CG42538", "reagent no.": 1, "induced reporter light, run 1, well a": 1.50e5, "induced reporter light, run 1, well b": 1.82e5, "control promoter light, run 1, well a": 2.43e5, "control promoter light, run 1, well b": 2.88e5, "uninduced reporter light, run 1, well a": 15450}
